For at least one entry, the source does not settle the construct or the ends of the probe. Where cells or extracts were used, other partners may take part. For part of these data: Negatives hold for the conditions tested. For part of these data: At least one verdict was read from the data and is not stated in words by the source. For part of these data: Protein sequences can lack the tags named with them.
Columns and labels:
[1] = biological target: MEF2C (Homo sapiens (TC-7 clone of Caco-2)) (UniProt Q06413); experiment: EMSA supershift; settings: anti-MEF2C; 5-15 ug TC-7 nuclear extract, 25 mM HEPES (pH not stated), 100 mM KCl, 0.1% NP-40, 1 mM DTT, 5% glycerol, 1 ug poly(dI-dC), 20 fmol probe in 20 ul; protein in an extract; label: 5'-32P
[2] = biological target: T1, MEF2D (Homo sapiens (TC-7 clone of Caco-2)) (UniProt Q14814); experiment: EMSA supershift; settings: anti-MEF2D; 5-15 ug TC-7 nuclear extract, 25 mM HEPES (pH not stated), 100 mM KCl, 0.1% NP-40, 1 mM DTT, 5% glycerol, 1 ug poly(dI-dC), 20 fmol probe in 20 ul; protein in an extract; label: 5'-32P
T1 sequence (looked up, limits assumed): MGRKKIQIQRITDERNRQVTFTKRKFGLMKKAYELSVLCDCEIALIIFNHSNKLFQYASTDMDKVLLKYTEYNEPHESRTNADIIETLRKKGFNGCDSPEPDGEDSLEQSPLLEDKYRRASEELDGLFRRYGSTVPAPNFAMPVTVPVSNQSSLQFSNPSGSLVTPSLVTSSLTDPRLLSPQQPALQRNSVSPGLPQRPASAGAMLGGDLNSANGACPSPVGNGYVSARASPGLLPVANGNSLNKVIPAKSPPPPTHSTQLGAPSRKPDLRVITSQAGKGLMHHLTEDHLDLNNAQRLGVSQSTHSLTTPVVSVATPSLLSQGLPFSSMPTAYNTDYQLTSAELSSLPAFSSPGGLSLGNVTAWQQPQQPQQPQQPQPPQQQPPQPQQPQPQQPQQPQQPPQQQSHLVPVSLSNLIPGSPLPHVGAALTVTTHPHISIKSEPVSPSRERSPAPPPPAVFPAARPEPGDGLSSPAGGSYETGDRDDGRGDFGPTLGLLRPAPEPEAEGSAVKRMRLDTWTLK

Amino acid sequences for entries named in this document (tags omitted). A change or cut given only in a name is not applied to a line headed by its entry.
UniProt Q06413, whole entry: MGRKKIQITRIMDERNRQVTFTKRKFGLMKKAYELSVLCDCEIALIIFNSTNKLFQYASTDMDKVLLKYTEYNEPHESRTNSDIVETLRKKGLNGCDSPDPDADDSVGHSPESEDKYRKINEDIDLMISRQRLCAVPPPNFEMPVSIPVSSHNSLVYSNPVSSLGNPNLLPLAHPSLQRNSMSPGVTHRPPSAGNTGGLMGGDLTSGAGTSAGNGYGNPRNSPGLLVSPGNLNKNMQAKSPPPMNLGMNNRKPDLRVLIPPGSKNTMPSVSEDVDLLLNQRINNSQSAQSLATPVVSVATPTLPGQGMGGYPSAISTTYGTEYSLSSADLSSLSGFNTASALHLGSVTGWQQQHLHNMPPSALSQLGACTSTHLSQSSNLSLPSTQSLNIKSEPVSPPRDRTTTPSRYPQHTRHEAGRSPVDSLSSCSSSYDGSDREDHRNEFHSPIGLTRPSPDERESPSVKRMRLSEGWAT
UniProt Q02078: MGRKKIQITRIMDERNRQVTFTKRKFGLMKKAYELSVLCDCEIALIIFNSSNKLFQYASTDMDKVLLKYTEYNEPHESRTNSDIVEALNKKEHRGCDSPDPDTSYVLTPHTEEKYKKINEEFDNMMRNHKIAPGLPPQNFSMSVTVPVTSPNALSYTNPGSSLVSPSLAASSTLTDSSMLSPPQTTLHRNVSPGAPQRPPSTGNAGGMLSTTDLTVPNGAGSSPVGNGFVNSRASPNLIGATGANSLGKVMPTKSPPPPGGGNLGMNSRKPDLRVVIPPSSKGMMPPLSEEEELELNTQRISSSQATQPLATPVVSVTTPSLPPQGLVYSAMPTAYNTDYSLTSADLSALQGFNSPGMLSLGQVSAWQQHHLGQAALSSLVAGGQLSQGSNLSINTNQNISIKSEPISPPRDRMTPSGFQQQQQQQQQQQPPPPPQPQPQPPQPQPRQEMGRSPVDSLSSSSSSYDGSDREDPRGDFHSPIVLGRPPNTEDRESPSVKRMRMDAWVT
UniProt P19793: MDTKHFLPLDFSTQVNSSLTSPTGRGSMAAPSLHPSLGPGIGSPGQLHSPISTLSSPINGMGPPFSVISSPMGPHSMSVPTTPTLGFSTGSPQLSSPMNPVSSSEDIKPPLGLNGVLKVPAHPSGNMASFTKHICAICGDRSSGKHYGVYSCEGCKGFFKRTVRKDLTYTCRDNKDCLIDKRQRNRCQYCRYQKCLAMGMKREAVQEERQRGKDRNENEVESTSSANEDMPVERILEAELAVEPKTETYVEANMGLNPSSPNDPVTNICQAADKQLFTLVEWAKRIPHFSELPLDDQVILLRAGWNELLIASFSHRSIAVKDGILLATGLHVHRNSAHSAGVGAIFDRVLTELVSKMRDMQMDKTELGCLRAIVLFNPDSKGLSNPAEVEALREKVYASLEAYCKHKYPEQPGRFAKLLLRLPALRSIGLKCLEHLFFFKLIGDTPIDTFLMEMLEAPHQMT

[3] = biological target: MEF2A (Homo sapiens (TC-7 clone of Caco-2)) (UniProt Q02078); experiment: EMSA with antibody (complex diminished); settings: anti-MEF2A; 5-15 ug TC-7 nuclear extract, 25 mM HEPES (pH not stated), 100 mM KCl, 0.1% NP-40, 1 mM DTT, 5% glycerol, 1 ug poly(dI-dC), 20 fmol probe in 20 ul; protein in an extract; label: 5'-32P
[4] = biological target: MEF2C (Homo sapiens (TC-7 clone of Caco-2)) (UniProt Q06413); experiment: EMSA; settings: mutated probe, complex abolished; 5-15 ug TC-7 nuclear extract, 25 mM HEPES (pH not stated), 100 mM KCl, 0.1% NP-40, 1 mM DTT, 5% glycerol, 1 ug poly(dI-dC), 20 fmol probe in 20 ul; protein in an extract; label: 5'-32P
[5] = biological target: RXRalpha (Homo sapiens (TC-7 clone of Caco-2)) (UniProt P19793); experiment: EMSA supershift; settings: anti-RXRalpha, weak supershift, complex diminished; 5-15 ug TC-7 nuclear extract, 25 mM HEPES (pH not stated), 100 mM KCl, 0.1% NP-40, 1 mM DTT, 5% glycerol, 1 ug poly(dI-dC), 20 fmol probe in 20 ul; protein in an extract; label: 5'-32P
[6] = biological target: PPARgamma (Homo sapiens (TC-7 clone of Caco-2)) (UniProt P37231); experiment: EMSA with antibody (complex diminished); settings: anti-PPARgamma; 5-15 ug TC-7 nuclear extract, 25 mM HEPES (pH not stated), 100 mM KCl, 0.1% NP-40, 1 mM DTT, 5% glycerol, 1 ug poly(dI-dC), 20 fmol probe in 20 ul; protein in an extract; label: 5'-32P

CTCTCTGCTTATTTAGAACCTAGTC (double strand) [BCMO1 MEF2 wild type]
binding result [1]: binds | binding result [2]: binds | binding result [3]: binds

CTCTCTGCTTGTTTACAACCTAGTC (double strand) [BCMO1 MEF2 mutated]
binding result [4]: no binding

GCTTGGAAATTAACCTTTAACCAAACAT (double strand) [BCMO1 PPRE wild type]
binding result [5]: binds | binding result [6]: binds

Reference: paper PMC1526748
